# Measurements: article PMC8864220, “Transcriptional Regulation of the Creatine Utilization Genes of Corynebacterium glutamicum ATCC 14067 by AmtR, a Central Nitrogen Regulator”
# Where a chain is given by its changes, count along the chain named. The exact form of at least one protein or probe is not confirmed. For part of these data: A negative result means that nothing was seen under these conditions. Tags and fusion partners may be left off the protein sequences shown. For part of these data: Weaker means in comparison with the reference protein, sequence or condition of that experiment. For part of these data: At least one verdict rests on a figure or table, not on a statement of the authors.
# How the values were obtained:
# [1] = molecular target: T1, AmtR (Corynebacterium glutamicum ATCC 14067) (UniProt H7C699); experiment: EMSA; details: 20 ul: 10 mM Tris pH 7.0, 50 mM KCl, 1 mM DTT, 10 mM EDTA, 2.5% glycerol, 0.05% NP-40, 50 ng/ul poly(dIdC), 100 ng DNA, 0-0.8 ug AmtR, protein details: C-terminal His6
# T1 sequence (looked up, limits assumed): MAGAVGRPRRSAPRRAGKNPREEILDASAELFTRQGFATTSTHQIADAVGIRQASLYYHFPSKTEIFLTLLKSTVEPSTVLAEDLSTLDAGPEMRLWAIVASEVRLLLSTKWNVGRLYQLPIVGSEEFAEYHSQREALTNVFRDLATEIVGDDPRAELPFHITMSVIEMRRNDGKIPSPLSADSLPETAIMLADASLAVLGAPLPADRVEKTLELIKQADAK
# [2] = molecular target: T2, AmtR (Corynebacterium glutamicum ATCC 14067) (UniProt H7C699); experiment: EMSA; details: 20 ul: 10 mM Tris pH 7.0, 50 mM KCl, 1 mM DTT, 10 mM EDTA, 2.5% glycerol, 0.05% NP-40, 50 ng/ul poly(dIdC), 100 ng DNA, 0-0.8 ug AmtR, recombinant …, protein details: C-terminal His6, probe letters rebuilt from the primers and the genome
# T2 sequence (looked up, limits assumed): T1 sequence (looked up, limits assumed) with R34H, T87I, P203S
sequence,measurement,setting,value
GTTGCGCTATAGAAAAAGCGTCGGAGACCGACTATGTTCAGA (double strand) [PhyuB-3],binding result,[1]; recombinant …,binds more weakly
CGGTGTCATCGCCAGCGATGGTGCCAACGACTTCTTTCAGCCCCACCCTATCGATGAAACTTGCCAGGTACTGGGCAGCTCCCGGCGGGGTGCGCAGCATCGCGATGTTGCCGGAATGATCTGTAGAAACCAGCAGTTCATCAAGCATGCGGCGCAGCTTCTCCGACGGACCCCGGAGATCTTCGCGGGCGATGCTATCTACTGGGCCGACCGCGTAGTAGGCGCGTCCCCCATCGGGGCGAACCTTGCGTGCACCGAGTTCATCGAGATCCCGGGACAAGGTGGCCTGGGTGATATCGATGCCTTCATCCAGCAGCAATTCAGACAGTTGTACCTGGCTGGTGACTTTTTGTTTGTCCAAAATCTGCAAAATGAGAGCTTGGCGTGCAGTGCGAGTC (double strand) [argR-EMSA],binding result,[2],no binding
GATTTTGCAAGTTTCTATAGATTGATAGAAAAAGGAGTTTAG (double strand) [EMSA-PC (amtA promoter)],binding result,"[1]; positive control, recombinant protein",binds
